# Source: publication doi:10.1101/2020.03.25.007906 (bioRxiv, 2020)
# Like-named read-outs stand apart in the source and are kept apart here. Results are given in words; binding and its absence hold for the method and conditions named. For some assays here: Binding seen in cells or lysates may run through a third protein. Some binding calls cover weakened binding; strength is not graded here. Tags and fused reporters may be left off the sequences shown.
# T1: T18 tagged PprA (Deinococcus radiodurans) (UniProt O32504)
# T1 sequence: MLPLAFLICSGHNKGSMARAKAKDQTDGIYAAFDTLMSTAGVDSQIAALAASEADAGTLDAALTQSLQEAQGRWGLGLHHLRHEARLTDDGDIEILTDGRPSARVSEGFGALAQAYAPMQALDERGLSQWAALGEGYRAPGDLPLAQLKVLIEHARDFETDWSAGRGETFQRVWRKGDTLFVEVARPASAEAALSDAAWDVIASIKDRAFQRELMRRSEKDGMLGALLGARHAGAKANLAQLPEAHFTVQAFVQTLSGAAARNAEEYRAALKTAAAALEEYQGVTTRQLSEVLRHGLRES
# T2: drDnaA tagged with T18 or T25 through its C-terminal (Deinococcus radiodurans R1) (UniProt Q9RYE7)
# T2 sequence: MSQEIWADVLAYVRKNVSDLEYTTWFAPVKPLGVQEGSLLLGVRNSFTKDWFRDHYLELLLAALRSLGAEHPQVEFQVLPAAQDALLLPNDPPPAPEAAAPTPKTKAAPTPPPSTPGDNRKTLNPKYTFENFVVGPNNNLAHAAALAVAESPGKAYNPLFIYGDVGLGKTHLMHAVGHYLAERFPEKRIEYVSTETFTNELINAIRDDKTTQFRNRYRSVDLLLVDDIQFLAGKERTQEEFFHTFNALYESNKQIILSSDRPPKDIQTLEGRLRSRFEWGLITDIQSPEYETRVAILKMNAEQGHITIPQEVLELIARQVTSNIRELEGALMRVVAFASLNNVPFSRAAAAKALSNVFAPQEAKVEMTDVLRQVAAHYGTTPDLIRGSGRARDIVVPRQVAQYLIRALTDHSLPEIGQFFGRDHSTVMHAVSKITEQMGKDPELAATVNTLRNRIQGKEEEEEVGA
# T3: native PprA expressing on chromosome (Deinococcus radiodurans R1 (endogenous)) (UniProt O32504)
# T3 sequence: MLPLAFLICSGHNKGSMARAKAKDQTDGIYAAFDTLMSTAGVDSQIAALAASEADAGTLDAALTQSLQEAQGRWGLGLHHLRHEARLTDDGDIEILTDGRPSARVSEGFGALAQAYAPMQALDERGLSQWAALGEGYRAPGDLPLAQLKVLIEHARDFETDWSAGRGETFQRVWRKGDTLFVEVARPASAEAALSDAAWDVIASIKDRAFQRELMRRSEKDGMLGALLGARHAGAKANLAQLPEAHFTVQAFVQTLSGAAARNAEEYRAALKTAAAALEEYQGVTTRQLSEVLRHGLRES
# Experiments:
# [1] = molecular target: T1, T18 tagged PprA (Deinococcus radiodurans); assay: two-hybrid
# [2] = molecular target: T2, drDnaA tagged with T18 or T25 through its C-terminal (Deinococcus radiodurans R1); assay: two-hybrid
# [3] = molecular target: T2, drDnaA tagged with T18 or T25 through its C-terminal (Deinococcus radiodurans R1); assay: two-hybrid; remark: listed apart in the source
# [4] = molecular target: T3, native PprA expressing on chromosome (Deinococcus radiodurans R1 (endogenous)); assay: co-IP
Binder,binding [1],binding [2],binding [3],binding [4]
"drDnaA tagged with T18 or T25 through its C-terminal (protein, UniProt Q9RYE7 1-466) MSQEIWADVLAYVRKNVSDLEYTTWFAPVKPLGVQEGSLLLGVRNSFTKDWFRDHYLELLLAALRSLGAEHPQVEFQVLPAAQDALLLPNDPPPAPEAAAPTPKTKAAPTPPPSTPGDNRKTLNPKYTFENFVVGPNNNLAHAAALAVAESPGKAYNPLFIYGDVGLGKTHLMHAVGHYLAERFPEKRIEYVSTETFTNELINAIRDDKTTQFRNRYRSVDLLLVDDIQFLAGKERTQEEFFHTFNALYESNKQIILSSDRPPKDIQTLEGRLRSRFEWGLITDIQSPEYETRVAILKMNAEQGHITIPQEVLELIARQVTSNIRELEGALMRVVAFASLNNVPFSRAAAAKALSNVFAPQEAKVEMTDVLRQVAAHYGTTPDLIRGSGRARDIVVPRQVAQYLIRALTDHSLPEIGQFFGRDHSTVMHAVSKITEQMGKDPELAATVNTLRNRIQGKEEEEEVGA",binds,binds,binds,
"recombinant PprA (natural protein, Deinococcus radiodurans, UniProt O32504 1-300, looked up) MLPLAFLICSGHNKGSMARAKAKDQTDGIYAAFDTLMSTAGVDSQIAALAASEADAGTLDAALTQSLQEAQGRWGLGLHHLRHEARLTDDGDIEILTDGRPSARVSEGFGALAQAYAPMQALDERGLSQWAALGEGYRAPGDLPLAQLKVLIEHARDFETDWSAGRGETFQRVWRKGDTLFVEVARPASAEAALSDAAWDVIASIKDRAFQRELMRRSEKDGMLGALLGARHAGAKANLAQLPEAHFTVQAFVQTLSGAAARNAEEYRAALKTAAAALEEYQGVTTRQLSEVLRHGLRES",,binds,,
"drDnaA with T18 tag or polyhistidine tag expressed on plasmids in D. radiodurans (protein, UniProt Q9RYE7 1-466) MSQEIWADVLAYVRKNVSDLEYTTWFAPVKPLGVQEGSLLLGVRNSFTKDWFRDHYLELLLAALRSLGAEHPQVEFQVLPAAQDALLLPNDPPPAPEAAAPTPKTKAAPTPPPSTPGDNRKTLNPKYTFENFVVGPNNNLAHAAALAVAESPGKAYNPLFIYGDVGLGKTHLMHAVGHYLAERFPEKRIEYVSTETFTNELINAIRDDKTTQFRNRYRSVDLLLVDDIQFLAGKERTQEEFFHTFNALYESNKQIILSSDRPPKDIQTLEGRLRSRFEWGLITDIQSPEYETRVAILKMNAEQGHITIPQEVLELIARQVTSNIRELEGALMRVVAFASLNNVPFSRAAAAKALSNVFAPQEAKVEMTDVLRQVAAHYGTTPDLIRGSGRARDIVVPRQVAQYLIRALTDHSLPEIGQFFGRDHSTVMHAVSKITEQMGKDPELAATVNTLRNRIQGKEEEEEVGA",,,,binds
